Data: paper PMC6177441
No constants are given. Whether binding was seen depends on the method and setting. Binding seen in cells or lysates may run through a third protein. Some results given as binding are weak or reduced against the parent protein; the word gives no strength.

Chains of the proteins cited; added tags and fusions are not shown.
UniProt P23242: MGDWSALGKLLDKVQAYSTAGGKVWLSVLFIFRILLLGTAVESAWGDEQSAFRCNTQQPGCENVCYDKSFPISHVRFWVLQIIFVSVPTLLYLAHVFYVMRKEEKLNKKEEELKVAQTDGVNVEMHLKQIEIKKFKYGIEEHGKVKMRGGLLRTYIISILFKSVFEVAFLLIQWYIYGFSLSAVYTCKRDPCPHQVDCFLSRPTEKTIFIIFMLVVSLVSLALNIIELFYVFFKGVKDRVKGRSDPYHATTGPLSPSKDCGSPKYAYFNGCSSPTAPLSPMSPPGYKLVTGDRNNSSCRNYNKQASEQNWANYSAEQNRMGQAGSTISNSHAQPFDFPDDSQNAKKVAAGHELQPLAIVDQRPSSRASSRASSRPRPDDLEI

T1: Cx43-interacting protein of 85 kDa (CIP85) (mouse (endogenous in neonatal mouse ventricular myocytes)) (UniProt Q8VCZ6)
T1 sequence: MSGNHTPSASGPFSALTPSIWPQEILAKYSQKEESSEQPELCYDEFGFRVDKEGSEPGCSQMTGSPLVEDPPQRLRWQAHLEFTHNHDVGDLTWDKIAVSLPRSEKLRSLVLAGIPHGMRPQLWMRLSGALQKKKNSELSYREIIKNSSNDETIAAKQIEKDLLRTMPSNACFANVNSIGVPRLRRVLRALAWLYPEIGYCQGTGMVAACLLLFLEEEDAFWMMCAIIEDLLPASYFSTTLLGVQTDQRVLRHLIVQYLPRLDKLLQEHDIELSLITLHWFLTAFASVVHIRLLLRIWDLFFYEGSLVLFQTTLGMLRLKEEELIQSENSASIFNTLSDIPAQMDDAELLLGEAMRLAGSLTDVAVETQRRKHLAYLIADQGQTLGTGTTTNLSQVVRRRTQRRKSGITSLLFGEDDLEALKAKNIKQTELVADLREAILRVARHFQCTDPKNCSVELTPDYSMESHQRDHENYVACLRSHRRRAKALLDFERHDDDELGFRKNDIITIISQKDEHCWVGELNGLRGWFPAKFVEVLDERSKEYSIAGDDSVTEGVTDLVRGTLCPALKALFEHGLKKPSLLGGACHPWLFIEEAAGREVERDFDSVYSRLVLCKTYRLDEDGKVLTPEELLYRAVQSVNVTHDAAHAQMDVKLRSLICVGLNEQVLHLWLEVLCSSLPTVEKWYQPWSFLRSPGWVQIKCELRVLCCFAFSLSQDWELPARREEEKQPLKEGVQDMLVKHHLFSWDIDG


Key:
[1] = target: T1, Cx43-interacting protein of 85 kDa (CIP85) (mouse (endogenous in neonatal mouse ventricular myocytes)); test: co-IP; endogenous proteins in lysate of cultured NMVMs (RIPA lysis buffer: 50 mM Tris pH 7.4, 150 mM NaCl, 1% Triton X-100, 1% sodium deoxycholate, 0.1% SDS), 4 °C, precipitated with anti-Cx43 or anti-CIP85 antibody, protein A/G plus-agarose beads, immunoblot; also in NMVMs transfected with pFD or pFD-Mut (less Cx43 co-precipitated with pFD)
[2] = target: connexin43 (Cx43) (mouse (endogenous in neonatal mouse ventricular myocytes)) (UniProt P23242); test: as above

Row | binding [1] | binding [2] | Molecule
1 | binds |  | connexin43 (Cx43) (from UniProt P23242 1-382)
2 |  | binds | Cx43-interacting protein of 85 kDa (CIP85) (protein, UniProt Q8VCZ6 1-750) MSGNHTPSASGPFSALTPSIWPQEILAKYSQKEESSEQPELCYDEFGFRVDKEGSEPGCSQMTGSPLVEDPPQRLRWQAHLEFTHNHDVGDLTWDKIAVSLPRSEKLRSLVLAGIPHGMRPQLWMRLSGALQKKKNSELSYREIIKNSSNDETIAAKQIEKDLLRTMPSNACFANVNSIGVPRLRRVLRALAWLYPEIGYCQGTGMVAACLLLFLEEEDAFWMMCAIIEDLLPASYFSTTLLGVQTDQRVLRHLIVQYLPRLDKLLQEHDIELSLITLHWFLTAFASVVHIRLLLRIWDLFFYEGSLVLFQTTLGMLRLKEEELIQSENSASIFNTLSDIPAQMDDAELLLGEAMRLAGSLTDVAVETQRRKHLAYLIADQGQTLGTGTTTNLSQVVRRRTQRRKSGITSLLFGEDDLEALKAKNIKQTELVADLREAILRVARHFQCTDPKNCSVELTPDYSMESHQRDHENYVACLRSHRRRAKALLDFERHDDDELGFRKNDIITIISQKDEHCWVGELNGLRGWFPAKFVEVLDERSKEYSIAGDDSVTEGVTDLVRGTLCPALKALFEHGLKKPSLLGGACHPWLFIEEAAGREVERDFDSVYSRLVLCKTYRLDEDGKVLTPEELLYRAVQSVNVTHDAAHAQMDVKLRSLICVGLNEQVLHLWLEVLCSSLPTVEKWYQPWSFLRSPGWVQIKCELRVLCCFAFSLSQDWELPARREEEKQPLKEGVQDMLVKHHLFSWDIDG
